In patent US4720483A, “Oligopeptides and intermediates and processes for their manufacture” (Ciba-Geigy Corporation, priority 1985, dated 1988):
At least one peptide structure holds a part that was inferred or is arguable (an end, a ring closure or a residue).

Tests used:
[1] = test system: isolated perfused mesenteric layer of rats; test: vasodilation in the isolated perfused mesenteric layer pre-astringed with noradrenalin; details: bolus injections of approximately 100 to 10000 ng; pre-astringed by infusion of 4 μg/ml noradrenalin; as a function of the concentration
[2] = test system: despinalised rat; test: blood pressure, heart rate and pressor effects in the despinalised rat; assay type: in vivo; details: 1 μg/kg/min

## CSCC[C@H](NC(=O)CNC(=O)CNC(=O)[C@H](CO)NC(=O)[C@H](CCCNC(=N)N)NC(=O)[C@H](CO)NC(=O)[C@H](CC(C)C)NC(=O)[C@H](CC(C)C)NC(=O)CNC(=O)[C@H](C)NC(=O)[C@H](CC(C)C)NC(=O)[C@H](CCCNC(=N)N)NC(=O)[C@H](Cc1c[nH]cn1)NC(=O)[C@@H](NC(=O)[C@@H](NC(=O)[C@@H]1CSSC[C@H](NC(=O)[C@H](C)N)C(=O)N[C@@H](CC(N)=O)C(=O)N[C@@H]([C@@H](C)O)C(=O)N[C@@H](C)C(=O)N[C@@H]([C@@H](C)O)C(=O)N1)C(C)C)[C@@H](C)O)C(=O)N[C@H](C(=O)N[C@@H](CCCCN)C(=O)N[C@@H](CO)C(=O)N[C@@H](CC(N)=O)C(=O)N[C@@H](Cc1ccccc1)C(=O)N[C@H](C(=O)N1CCC[C@H]1C(=O)N[C@H](C(=O)N[C@@H](CC(N)=O)C(=O)N[C@H](C(=O)NCC(=O)N[C@@H](CO)C(=O)N[C@@H](CCCCN)C(=O)N[C@@H](C)C(=O)N[C@@H](Cc1ccccc1)C(N)=O)C(C)C)[C@@H](C)O)C(C)C)C(C)C [CGRP II]
[1]
  vasodilation: induce vasodilation
[2]
  blood pressure: reduce the blood pressure
  increase of the heart rate: approximately 40 beats per minute
  pressor effects caused by electrostimulation of the sympathetic nervous system: inhibit the pressor effects
  pressor effects caused by intravenous injection of angiotensin II or adrenalin: inhibit the pressor effects
